These are yes or no findings as the source states them, for the method shown. Binding seen in cells or lysates may run through a third protein. Here binding means that the protein was enriched with, or labelled near, the bait; the list need not be complete. For part of these data: A no says only that the protein was not detected with the bait.
What was measured:
[1] = target: γH2AX (histone H2AX phosphorylated at serine-139) (mouse (endogenous in testis)) (UniProt P27661); test: affinity purification with mass spectrometry; IP-MS on P15 wild-type mouse testis with γH2AX and SETDB1 as bait; LFQ enrichment against control IgG-IP (Welch's t-test, FDR 0.01)
[2] = target: SETDB1 (mouse (endogenous in testis)) (UniProt O88974); test: as above

Chains of the proteins cited; added tags and fusions are not shown.
UniProt Q5PSV9: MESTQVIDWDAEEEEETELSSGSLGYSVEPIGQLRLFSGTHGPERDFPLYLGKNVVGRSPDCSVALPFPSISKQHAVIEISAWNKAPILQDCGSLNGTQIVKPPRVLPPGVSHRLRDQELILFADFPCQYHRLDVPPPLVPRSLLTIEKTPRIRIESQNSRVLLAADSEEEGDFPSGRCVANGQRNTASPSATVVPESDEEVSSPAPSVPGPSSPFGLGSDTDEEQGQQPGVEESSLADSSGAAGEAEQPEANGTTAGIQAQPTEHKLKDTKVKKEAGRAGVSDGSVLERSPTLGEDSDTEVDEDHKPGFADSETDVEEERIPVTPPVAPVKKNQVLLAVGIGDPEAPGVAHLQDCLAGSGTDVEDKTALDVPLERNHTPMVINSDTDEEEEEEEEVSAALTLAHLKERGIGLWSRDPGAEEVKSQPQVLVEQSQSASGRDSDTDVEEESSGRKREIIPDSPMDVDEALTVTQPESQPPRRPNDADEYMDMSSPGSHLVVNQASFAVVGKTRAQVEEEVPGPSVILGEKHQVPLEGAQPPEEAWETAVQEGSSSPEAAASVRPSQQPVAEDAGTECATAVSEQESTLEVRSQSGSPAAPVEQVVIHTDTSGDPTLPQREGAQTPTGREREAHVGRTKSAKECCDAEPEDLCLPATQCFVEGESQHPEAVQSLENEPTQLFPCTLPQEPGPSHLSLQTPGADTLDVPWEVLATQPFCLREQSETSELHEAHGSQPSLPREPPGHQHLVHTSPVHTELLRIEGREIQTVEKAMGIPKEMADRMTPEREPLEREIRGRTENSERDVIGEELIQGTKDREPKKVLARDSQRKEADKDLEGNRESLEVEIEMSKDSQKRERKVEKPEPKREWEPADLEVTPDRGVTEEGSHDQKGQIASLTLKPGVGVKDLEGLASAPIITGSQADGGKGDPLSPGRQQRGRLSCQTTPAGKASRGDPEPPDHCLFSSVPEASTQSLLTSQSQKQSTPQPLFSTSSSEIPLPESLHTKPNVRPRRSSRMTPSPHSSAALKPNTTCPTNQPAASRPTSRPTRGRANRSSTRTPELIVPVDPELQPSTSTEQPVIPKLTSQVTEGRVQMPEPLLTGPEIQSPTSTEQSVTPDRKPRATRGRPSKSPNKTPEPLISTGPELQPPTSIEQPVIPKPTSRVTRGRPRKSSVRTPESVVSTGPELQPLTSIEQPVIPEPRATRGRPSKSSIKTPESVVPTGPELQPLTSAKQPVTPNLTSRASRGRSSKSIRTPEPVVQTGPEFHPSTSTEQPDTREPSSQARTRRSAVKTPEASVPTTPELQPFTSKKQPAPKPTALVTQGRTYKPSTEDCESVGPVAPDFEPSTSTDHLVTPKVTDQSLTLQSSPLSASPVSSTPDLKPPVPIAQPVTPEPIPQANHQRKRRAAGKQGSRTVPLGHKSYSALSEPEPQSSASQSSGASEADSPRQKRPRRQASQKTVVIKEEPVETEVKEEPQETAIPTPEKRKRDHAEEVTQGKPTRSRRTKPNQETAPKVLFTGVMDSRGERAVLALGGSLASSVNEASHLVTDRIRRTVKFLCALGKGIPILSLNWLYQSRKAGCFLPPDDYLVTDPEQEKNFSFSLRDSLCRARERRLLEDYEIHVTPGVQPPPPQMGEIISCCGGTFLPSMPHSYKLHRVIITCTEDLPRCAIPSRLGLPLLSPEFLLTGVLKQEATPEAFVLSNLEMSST

binding [1] | binding [2] | Substance
binds | no binding | MDC1 (from UniProt Q5PSV9 1-1707)
binds | – | hnRNP K (from UniProt P61979 1-463)

From publication PMC6286383
